Data published in patent US20220283164A1, “Method for Predicting Therapeutic Response to Serine-Theronine Kinase Braf Inhibitor Drugs” (CONSEJO SUPERIOR DE INVESTIGACIONES CIENTIFICAS, priority 2019, published 2022).
For at least one compound, name, drawing or mass did not settle the structure.

Key:
Type in all cases: cell-based
MELJUSO = experiment: Reduction in total ERK1/2 activity (p-ERK, western blot) after vemurafenib treatment; details: MELJUSO line, FIG. 4
SKMEL2 = experiment: as above; details: SKMEL2 line, FIG. 4
[1] = tested on: M249 subline resistant to vemurafenib (vemR); experiment: Sensitivity of M249 vemR subline to vemurafenib
M249 parental line = experiment: Sensitivity of M249 parental line to vemurafenib; details: BRAF positive melanoma line M249, parental

`CCCS(=O)(=O)Nc1ccc(F)c(C(=O)c2c[nH]c3ncc(-c4ccc(Cl)cc4)cc23)c1F` [vemurafenib] was tested, and the “Sensitivity to vemurafenib by reduction in total ERK1/2 activity (decrease in p-ERK)” value (MELJUSO) was “resistant”, the “Sensitivity to vemurafenib by reduction in total ERK1/2 activity (decrease in p-ERK)” value (SKMEL2) was “resistant” and the Sensitivity to vemurafenib [1] was “resistant”. For the same molecule, the Sensitivity to vemurafenib (M249 parental line) was “sensitive”.
